# According to PubChem BioAssay (NCATS):
# This is one part of the list. The main result of the screen is listed elsewhere. These columns were measured beside it and carry no call. Most of these compounds were active or inconclusive in the main read-out, so they are no random draw. For some assays here: Words in brackets tell the shape of the fitted curve; partial curves, single points and poor fits give uncertain potencies.
# Tests used:
# [1] = qHTS for identification of novel therapeutic agents for treatment of microphthalmiaassociated transcription factor (MiT) renal cell carcinoma (RCC) (AID 1963991); settings: CellTiter-Glo, 48 h; for z-score: stronger effect = lower value;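 for z-score: curves scaled with 100% = DMSO viability and 0% = empty wells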
# Outline: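 UOK109/UOK124/UOK145 (TFE3 fusions, three partners); 500 cells/well; MIPE v4.0, 1912 cpds, 11 conc.; 48 h, 37 C; CellTiter-Glo, 15 min RT; lum. Norm.: DMSO 100%, empty 0%.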
# [2] = qHTS Assay for Modulators of Human Peripheral Myelin Protein 22 (PMP22) Expression/Activity (AID 1967); settings: Cell-based PMP22 reporter, dual-color luciferase ratio
# Outline: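 Engineered MSC80 cells, Pmp22-promoter green and EF-alpha red luciferase reporters; 24h compound treatment at 37 °C. Concentration-response fits on green, red and ratio signals, each overlap-corrected, with %Activity normalized to untreated wells.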
# [3] = qHTS Validation Assay to Find Inhibitors of Chronic Active B-Cell Receptor Signaling (AID 485345); settings: ABC-DLBCL cells, chronic BCR signaling reporter; measured here: CBG/CBR ratio read-out
# Outline: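 TMD8 ABC-DLBCL cells stably carrying doxycycline-inducible IkappaBalpha–green luciferase fusion plus unfused red luciferase; compounds 46 uM to 3 nM, 4 h at 37C with doxycycline. Corrected green/red luminescence ratio normalized to 10 uM MG-132 and basal cell wells; curves fitted.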
# [4] = qHTS assay for small molecule antagonists of peroxisome proliferator-activated receptor gamma signaling (AID 588537); settings: HEK293 PPARg-UAS-bla, beta-lactamase ratio, antagonist mode; measured here: W460 blue channel
# Outline: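 Step one: plate 3000 HEK293 UAS-bla cells per well in medium with 1% stripped serum and hold 6-6.5 h at 37 C. Step two: add compound and 50 nM agonist for 16 h. Step three: CCF4 loading, fluorescence read.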
# [5] = qHTS assay for small molecule agonists of retinoid X receptor alpha signaling (AID 588544); settings: HEK293T RXRa-UAS-bla, beta-lactamase reporter, 18 h; 530 nm emission
# [6] = TFE3-RCC UOK109 viability, measured here: UOK109 Z-AUC
# [7] = TFE3-RCC viability, measured here: UOK124 Z-AUC
# [8] = TFE3-RCC viability, measured here: UOK145 Z-AUC
# [9] = TFE3-RCC viability, measured here: UOK145 cell viability
# [10] = TFE3-RCC viability, measured here: UOK124 cell viability
smiles,measurement,setting,value
C[C@]12CCC(=O)C(O)=C1CC[C@@H]1[C@H]3CCC(=O)[C@@]3(C)CC[C@@H]12,z-score,[1]; [6],0.553
same,z-score,[1]; [7],0.741
same,z-score,[1]; [8],-2.5
same,AC50,[1]; [9],"0.935 µM [falling, partial curve, poor fit]"
N#C[C@H](O[C@@H]1O[C@H](CO[C@@H]2O[C@H](CO)[C@H](O)[C@H](O)[C@H]2O)[C@H](O)[C@H](O)[C@H]1O)c1ccccc1,z-score,[1]; [6],0.179
same,z-score,[1]; [7],-0.24
same,AC50,[1]; [10],"26.4 µM [falling, partial curve]"
same,z-score,[1]; [8],0.131
same,AC50,[1]; [9],"20.9 µM [falling, partial curve]"
CCOC(=O)Nc1ccc(NCc2ccc(F)cc2)cc1N,z-score,[1]; [6],-0.119
same,z-score,[1]; [7],0.84
same,z-score,[1]; [8],0.157
same,AC50,[1]; [9],"26.4 µM [falling, partial curve, poor fit]"
COC[C@H]1OC(=O)c2coc3c2[C@@]1(C)C1=C(C3=O)[C@@H]2CC[C@H](O)[C@@]2(C)C[C@@H]1OC(C)=O,z-score,[1]; [6],-0.571
same,z-score,[1]; [7],0.748
same,AC50,[1]; [10],"0.526 µM [falling, partial curve]"
same,z-score,[1]; [8],-1.51
same,AC50,[1]; [9],"3.32 µM [falling, full curve]"
C=C[C@@H]1CN2CCC1C[C@@H]2[C@@H](O)c1ccnc2ccccc12 (some centres not stated),z-score,[1]; [6],0.566
same,z-score,[1]; [7],-0.0691
same,AC50,[1]; [10],"20.9 µM [falling, partial curve]"
same,z-score,[1]; [8],-0.079
same,AC50,[1]; [9],"16.6 µM [falling, partial curve]"
CC(C)(C)c1cc(C=C(C#N)C#N)cc(Br)c1O,z-score,[1]; [6],0.139
same,z-score,[1]; [7],0.314
same,AC50,[1]; [10],"20.9 µM [falling, partial curve]"
same,z-score,[1]; [8],0.143
same,AC50,[1]; [9],"20.9 µM [falling, partial curve]"
O=c1[nH]c2ccccc2n1CCCN1CCC(n2c(=O)[nH]c3cc(Cl)ccc32)CC1,AC50,"[2]; measured here: green reporter channel AC50, mouse Pmp22 promoter in mouse Schwann cells","37.9 µM [falling, partial curve]"
same,AC50,"[2]; measured here: red reporter channel AC50, EF-alpha promoter control reporter in MSC80 mouse Schwann cells","67.5 µM [falling, partial curve]"
same,AC50,[3],"6.51 µM [falling, partial curve]"
same,z-score,[1]; [6],0.696
same,z-score,[1]; [7],0.373
same,AC50,[1]; [10],"23.5 µM [falling, single point]"
same,z-score,[1]; [8],0.715
CC(O)(CS(=O)(=O)c1ccc(F)cc1)C(=O)Nc1ccc(C#N)c(C(F)(F)F)c1 (configuration not stated),z-score,[1]; [6],-0.593
same,z-score,[1]; [7],0.341
same,AC50,[1]; [10],"37.2 µM [falling, single point]"
same,z-score,[1]; [8],-0.655
same,AC50,[1]; [9],"5.26 µM [falling, full curve]"
O=C1CCC[C@@H]2[C@H]3CCCN4CCC[C@@H](CN12)[C@@H]34,z-score,[1]; [6],0.0276
same,z-score,[1]; [7],-0.128
same,AC50,[1]; [10],"0.00118 µM [rising, full curve]"
same,z-score,[1]; [8],-0.0618
C[C@]12CC[C@@H]3c4ccc(OC(=O)N(CCCl)CCCl)cc4CC[C@H]3[C@@H]1CC[C@@H]2OP(=O)(O)O,z-score,[1]; [6],1.01
same,z-score,[1]; [7],1.05
same,AC50,[1]; [10],"0.00209 µM [falling, full curve, poor fit]"
same,z-score,[1]; [8],1.31
N=c1c2c(-c3ccccc3)c(-c3ccccc3)n(Cc3ccccc3)c2ncn1C1CCC(O)CC1 (configuration not stated),z-score,[1]; [6],-1.62
same,z-score,[1]; [7],-0.0707
same,AC50,[1]; [10],"23.5 µM [falling, partial curve, poor fit]"
same,z-score,[1]; [8],-0.605
same,AC50,[1]; [9],"0.332 µM [falling, full curve]"
C=C1C[C@H]2[C@H]3CCC(=O)[C@@]3(C)CC[C@@H]2[C@@]2(C)C=CC(=O)C=C12,z-score,[1]; [6],0.744
same,z-score,[1]; [7],0.643
same,z-score,[1]; [8],0.305
same,AC50,[1]; [9],"23.5 µM [falling, partial curve, poor fit]"
CN1CCN(c2ccc([N+](=O)[O-])c3no[n+]([O-])c23)CC1,z-score,[1]; [6],1.05
same,z-score,[1]; [7],0.0372
same,AC50,[1]; [10],"37.2 µM [falling, single point]"
same,z-score,[1]; [8],0.322
same,AC50,[1]; [9],"33.2 µM [falling, single point]"
O=c1[nH]c2ccccc2n1C1CCN(Cc2ccc(-c3[nH]c4cc5ncnc5cc4nc3-c3ccccc3)cc2)CC1,z-score,[1]; [6],0.115
same,z-score,[1]; [7],0.351
same,AC50,[1]; [10],"9.35 µM [falling, partial curve]"
same,z-score,[1]; [8],-0.407
same,AC50,[1]; [9],"13.2 µM [falling, partial curve]"
Cc1cc(SCc2sc(-c3ccc(C(F)(F)F)c(F)c3)nc2C)ccc1OCC(=O)O,AC50,[4],"7.94 µM [rising, full curve, poor fit]"
same,max response,[5],103%
same,z-score,[1]; [6],1.15
same,z-score,[1]; [7],0.449
same,AC50,[1]; [10],"11.8 µM [falling, partial curve, poor fit]"
same,z-score,[1]; [8],0.71
C[C@]12CC[C@H](O)CC1=CC[C@H]1[C@H]3CCC(=O)[C@@]3(C)CC[C@@H]12,z-score,[1]; [6],0.365
same,z-score,[1]; [7],0.594
same,z-score,[1]; [8],3.23
same,AC50,[1]; [9],"5.9 µM [falling, partial curve, poor fit]"

# Looked up one by one from above (three):
smiles,measurement,setting,value
C=C1C[C@H]2[C@H]3CCC(=O)[C@@]3(C)CC[C@@H]2[C@@]2(C)C=CC(=O)C=C12,z-score,[1]; [6],0.744
Cc1cc(SCc2sc(-c3ccc(C(F)(F)F)c(F)c3)nc2C)ccc1OCC(=O)O,z-score,[1]; [7],0.449
O=c1[nH]c2ccccc2n1C1CCN(Cc2ccc(-c3[nH]c4cc5ncnc5cc4nc3-c3ccccc3)cc2)CC1,z-score,[1]; [8],-0.407
